Results reported in the supplement of paper PMC10849652.
The other results are listed elsewhere or left out.

The chains behind the UniProt entries cited, without tags or fusion partners. Where a name states a change or a piece, a line headed by the entry shows the natural chain unless it says otherwise.
UniProt O00232: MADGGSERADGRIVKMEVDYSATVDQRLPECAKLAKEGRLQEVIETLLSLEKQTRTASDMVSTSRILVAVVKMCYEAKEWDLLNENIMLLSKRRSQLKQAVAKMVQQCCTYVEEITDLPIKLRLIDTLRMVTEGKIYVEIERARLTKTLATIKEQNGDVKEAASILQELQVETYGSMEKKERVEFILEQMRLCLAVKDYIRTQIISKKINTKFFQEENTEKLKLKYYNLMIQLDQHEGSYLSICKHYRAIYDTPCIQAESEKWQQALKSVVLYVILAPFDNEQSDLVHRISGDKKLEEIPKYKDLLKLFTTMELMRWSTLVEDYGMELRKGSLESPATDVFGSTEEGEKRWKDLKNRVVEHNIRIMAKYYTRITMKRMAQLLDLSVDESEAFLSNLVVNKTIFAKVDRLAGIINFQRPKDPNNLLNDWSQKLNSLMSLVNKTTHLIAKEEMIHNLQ
UniProt Q9Y617: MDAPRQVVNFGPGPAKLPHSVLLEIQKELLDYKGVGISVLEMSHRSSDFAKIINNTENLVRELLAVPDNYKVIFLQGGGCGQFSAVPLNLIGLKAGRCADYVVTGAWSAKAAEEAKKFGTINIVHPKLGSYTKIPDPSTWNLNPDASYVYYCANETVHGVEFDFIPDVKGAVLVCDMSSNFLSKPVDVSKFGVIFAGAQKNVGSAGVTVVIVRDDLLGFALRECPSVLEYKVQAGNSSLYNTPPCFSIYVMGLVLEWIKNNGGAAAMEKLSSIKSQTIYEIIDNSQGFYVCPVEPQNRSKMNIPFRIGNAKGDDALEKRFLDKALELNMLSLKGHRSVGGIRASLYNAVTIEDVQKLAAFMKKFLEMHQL
UniProt Q9BVG9: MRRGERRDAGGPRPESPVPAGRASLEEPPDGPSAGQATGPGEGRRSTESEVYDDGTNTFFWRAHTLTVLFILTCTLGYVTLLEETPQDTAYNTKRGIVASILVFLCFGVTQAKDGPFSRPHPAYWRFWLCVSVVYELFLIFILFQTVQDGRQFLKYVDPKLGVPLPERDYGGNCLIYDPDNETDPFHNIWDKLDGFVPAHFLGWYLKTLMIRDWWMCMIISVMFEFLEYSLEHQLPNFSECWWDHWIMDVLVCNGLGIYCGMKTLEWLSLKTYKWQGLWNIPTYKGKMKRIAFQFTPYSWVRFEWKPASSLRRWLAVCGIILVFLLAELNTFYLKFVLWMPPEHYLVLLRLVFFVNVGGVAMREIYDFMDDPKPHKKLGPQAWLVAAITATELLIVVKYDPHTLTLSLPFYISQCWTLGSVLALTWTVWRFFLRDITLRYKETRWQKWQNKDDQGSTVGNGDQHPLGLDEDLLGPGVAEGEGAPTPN
UniProt Q9UNM6: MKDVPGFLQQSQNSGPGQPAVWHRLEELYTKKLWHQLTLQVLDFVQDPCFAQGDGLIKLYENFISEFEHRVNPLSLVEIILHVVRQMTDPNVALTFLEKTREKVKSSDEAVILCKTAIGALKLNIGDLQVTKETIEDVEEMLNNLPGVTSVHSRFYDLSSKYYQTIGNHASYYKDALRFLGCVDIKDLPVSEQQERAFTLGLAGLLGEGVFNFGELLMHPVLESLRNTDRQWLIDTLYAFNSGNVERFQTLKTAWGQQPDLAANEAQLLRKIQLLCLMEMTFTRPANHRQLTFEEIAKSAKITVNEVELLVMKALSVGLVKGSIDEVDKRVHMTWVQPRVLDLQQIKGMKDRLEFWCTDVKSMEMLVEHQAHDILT
UniProt Q9BRP8: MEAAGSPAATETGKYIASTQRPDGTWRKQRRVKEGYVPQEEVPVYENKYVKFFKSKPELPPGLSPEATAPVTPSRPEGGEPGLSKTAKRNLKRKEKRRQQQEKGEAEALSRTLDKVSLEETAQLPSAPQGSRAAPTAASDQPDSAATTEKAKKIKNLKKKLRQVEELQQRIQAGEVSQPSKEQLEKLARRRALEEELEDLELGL
UniProt Q92932: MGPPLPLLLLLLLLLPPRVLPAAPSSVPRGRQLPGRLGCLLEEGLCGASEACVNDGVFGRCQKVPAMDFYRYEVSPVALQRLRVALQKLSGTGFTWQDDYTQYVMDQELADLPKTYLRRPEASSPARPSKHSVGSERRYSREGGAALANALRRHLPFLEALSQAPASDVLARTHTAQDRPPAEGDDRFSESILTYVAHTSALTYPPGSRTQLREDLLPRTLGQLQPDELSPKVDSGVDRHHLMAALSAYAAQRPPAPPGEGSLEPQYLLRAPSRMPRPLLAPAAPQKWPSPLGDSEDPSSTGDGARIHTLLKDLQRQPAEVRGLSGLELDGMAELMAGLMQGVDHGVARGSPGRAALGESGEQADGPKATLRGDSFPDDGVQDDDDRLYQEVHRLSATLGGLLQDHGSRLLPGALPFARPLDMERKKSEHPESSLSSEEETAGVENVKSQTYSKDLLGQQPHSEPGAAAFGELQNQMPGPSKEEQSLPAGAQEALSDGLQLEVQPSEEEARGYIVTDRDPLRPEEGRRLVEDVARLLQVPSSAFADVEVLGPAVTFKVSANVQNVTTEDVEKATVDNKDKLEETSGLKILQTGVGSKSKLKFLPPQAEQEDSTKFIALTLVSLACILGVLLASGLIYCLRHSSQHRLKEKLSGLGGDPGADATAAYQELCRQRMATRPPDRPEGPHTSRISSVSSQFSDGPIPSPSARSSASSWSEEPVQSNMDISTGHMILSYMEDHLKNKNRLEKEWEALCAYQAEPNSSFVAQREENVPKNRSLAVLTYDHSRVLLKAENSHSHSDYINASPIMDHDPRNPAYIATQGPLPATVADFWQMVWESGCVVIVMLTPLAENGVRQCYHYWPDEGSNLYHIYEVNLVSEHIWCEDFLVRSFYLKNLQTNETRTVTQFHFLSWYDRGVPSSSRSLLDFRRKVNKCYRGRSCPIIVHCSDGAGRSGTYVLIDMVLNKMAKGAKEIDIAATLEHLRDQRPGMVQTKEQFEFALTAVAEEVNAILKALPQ
UniProt Q86TP1: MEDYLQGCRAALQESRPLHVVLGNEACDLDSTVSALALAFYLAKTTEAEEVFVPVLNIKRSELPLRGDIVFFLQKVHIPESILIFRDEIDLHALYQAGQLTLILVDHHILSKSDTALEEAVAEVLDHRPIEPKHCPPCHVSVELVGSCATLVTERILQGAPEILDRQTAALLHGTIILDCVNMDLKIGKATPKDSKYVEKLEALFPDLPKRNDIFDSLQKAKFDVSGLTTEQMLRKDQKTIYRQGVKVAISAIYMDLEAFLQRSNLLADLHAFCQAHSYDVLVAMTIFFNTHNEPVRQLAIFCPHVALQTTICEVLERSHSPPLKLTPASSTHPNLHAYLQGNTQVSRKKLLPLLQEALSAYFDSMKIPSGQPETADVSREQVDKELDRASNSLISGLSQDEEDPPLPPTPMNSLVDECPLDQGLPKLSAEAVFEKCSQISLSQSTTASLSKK
UniProt Q7Z7A4: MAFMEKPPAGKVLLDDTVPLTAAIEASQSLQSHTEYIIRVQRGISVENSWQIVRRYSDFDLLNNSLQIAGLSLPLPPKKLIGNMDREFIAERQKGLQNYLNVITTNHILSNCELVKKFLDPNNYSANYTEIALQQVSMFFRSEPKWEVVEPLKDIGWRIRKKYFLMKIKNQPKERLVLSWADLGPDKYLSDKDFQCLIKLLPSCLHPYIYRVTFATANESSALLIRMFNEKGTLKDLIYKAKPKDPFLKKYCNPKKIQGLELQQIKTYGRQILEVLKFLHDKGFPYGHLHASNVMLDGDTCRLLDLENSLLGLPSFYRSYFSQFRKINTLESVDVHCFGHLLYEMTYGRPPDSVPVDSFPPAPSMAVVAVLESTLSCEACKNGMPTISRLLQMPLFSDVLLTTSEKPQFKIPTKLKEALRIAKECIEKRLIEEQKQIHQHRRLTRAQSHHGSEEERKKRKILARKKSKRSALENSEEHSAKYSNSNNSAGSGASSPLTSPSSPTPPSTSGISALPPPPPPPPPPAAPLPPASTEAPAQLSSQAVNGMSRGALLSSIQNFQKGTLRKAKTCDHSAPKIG
UniProt P25786: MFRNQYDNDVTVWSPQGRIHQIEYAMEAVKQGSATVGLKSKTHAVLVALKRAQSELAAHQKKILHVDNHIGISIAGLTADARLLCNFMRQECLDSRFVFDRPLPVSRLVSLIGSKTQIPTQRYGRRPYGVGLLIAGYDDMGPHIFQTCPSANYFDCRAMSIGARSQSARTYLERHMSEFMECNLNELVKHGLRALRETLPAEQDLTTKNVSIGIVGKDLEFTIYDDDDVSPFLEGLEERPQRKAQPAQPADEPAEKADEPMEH
UniProt P20618: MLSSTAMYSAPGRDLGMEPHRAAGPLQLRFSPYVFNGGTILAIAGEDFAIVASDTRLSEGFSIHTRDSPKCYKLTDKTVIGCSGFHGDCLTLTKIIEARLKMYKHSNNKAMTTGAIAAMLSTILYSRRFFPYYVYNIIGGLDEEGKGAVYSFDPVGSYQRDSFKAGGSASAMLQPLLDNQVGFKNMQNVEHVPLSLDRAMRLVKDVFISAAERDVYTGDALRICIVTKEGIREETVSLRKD
UniProt Q6ZRP7: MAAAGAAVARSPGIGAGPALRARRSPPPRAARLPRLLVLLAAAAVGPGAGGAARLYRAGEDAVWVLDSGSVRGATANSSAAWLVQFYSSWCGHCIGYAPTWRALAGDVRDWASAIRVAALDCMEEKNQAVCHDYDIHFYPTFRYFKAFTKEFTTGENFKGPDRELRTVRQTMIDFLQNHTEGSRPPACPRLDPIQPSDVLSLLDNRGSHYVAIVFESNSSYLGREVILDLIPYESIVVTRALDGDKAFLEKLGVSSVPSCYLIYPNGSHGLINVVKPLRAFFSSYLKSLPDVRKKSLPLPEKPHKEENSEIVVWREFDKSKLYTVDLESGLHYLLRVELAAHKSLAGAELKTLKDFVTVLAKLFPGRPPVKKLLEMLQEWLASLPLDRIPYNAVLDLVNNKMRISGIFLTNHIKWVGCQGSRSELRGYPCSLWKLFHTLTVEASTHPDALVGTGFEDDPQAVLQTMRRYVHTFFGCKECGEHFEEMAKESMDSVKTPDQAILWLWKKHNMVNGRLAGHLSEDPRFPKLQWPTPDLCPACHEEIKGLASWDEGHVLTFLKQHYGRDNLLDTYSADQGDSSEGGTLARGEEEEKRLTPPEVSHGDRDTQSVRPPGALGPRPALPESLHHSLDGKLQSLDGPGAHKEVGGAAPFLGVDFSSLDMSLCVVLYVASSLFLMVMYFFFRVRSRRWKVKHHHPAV
UniProt P11216: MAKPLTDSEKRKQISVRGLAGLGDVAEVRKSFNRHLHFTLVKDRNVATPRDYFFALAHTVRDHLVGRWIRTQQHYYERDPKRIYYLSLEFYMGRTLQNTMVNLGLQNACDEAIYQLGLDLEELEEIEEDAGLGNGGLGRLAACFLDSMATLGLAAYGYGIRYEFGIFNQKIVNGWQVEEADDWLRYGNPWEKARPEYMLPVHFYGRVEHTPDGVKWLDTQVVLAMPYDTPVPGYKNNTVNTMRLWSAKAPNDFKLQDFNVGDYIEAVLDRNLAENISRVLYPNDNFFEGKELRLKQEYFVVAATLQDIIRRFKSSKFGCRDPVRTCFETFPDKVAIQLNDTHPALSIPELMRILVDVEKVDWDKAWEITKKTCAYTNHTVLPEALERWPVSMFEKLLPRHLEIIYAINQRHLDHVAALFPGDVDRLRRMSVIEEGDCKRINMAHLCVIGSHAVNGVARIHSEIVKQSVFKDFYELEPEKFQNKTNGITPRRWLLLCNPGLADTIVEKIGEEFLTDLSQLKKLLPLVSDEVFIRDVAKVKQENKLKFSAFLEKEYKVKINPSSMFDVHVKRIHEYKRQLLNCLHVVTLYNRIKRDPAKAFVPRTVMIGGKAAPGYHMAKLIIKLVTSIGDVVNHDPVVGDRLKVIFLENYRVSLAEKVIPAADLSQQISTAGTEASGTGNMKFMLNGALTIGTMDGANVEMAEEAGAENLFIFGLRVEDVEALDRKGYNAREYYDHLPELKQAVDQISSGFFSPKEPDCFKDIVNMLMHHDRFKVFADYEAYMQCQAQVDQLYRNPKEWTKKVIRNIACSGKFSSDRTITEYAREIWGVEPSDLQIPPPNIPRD
UniProt Q8N8N7: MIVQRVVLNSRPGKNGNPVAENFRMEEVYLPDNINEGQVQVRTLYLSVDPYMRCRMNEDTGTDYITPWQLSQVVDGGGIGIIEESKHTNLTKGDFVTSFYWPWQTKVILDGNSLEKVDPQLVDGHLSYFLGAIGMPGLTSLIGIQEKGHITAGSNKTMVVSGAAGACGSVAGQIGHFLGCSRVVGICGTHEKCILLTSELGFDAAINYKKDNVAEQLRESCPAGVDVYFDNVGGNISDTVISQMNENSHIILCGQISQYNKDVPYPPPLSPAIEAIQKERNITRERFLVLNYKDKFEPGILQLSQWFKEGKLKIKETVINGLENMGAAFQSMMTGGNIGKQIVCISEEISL
UniProt P28065: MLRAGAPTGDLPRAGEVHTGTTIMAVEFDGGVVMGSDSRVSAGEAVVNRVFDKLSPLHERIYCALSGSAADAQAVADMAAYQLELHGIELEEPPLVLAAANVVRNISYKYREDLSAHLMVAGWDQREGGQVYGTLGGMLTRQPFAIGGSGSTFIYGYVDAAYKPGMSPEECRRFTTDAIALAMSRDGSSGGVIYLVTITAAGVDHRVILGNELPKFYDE

Experiments:
Experiment in all cases: log2 fold change, soluble protein after heating vs DMSO (PISA); higher = thermal stabilisation; K562 cells, 10 uM, 30 min; active = over 0.2 and 3.5 SD of the protein, either way, in both replicates (recomputed)
[1] = compound: COC1=CC=C(C=C1)CN2C=CC3=C2C=C(C=C3)C(=O)NO
Method in brief: (§1)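 K562 cells at 2×10^6 cells/mL were exposed to 10 μM compound for 30 min, then aliquots were heated for 3 min across 48°C-58°C, pooled, and extracted in PBS containing 0.5% NP-40 at 4°C. The supernatant after 21,000xg for 90 min was taken as soluble protein and measured by TMTpro 16plex LC-MS/MS with channel sums equalised. Thermal stability is reported relative to control samples, with values from duplicates. Fold changes are given on a log2 scale.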

filanesib = compound: CON(C)C(=O)N1N=C(c2cc(F)ccc2F)S[C@@]1(CCCN)c1ccccc1 [filanesib]
Method in brief: as §1

zotarolimus = compound: CO[C@H]1C[C@@H]2CC[C@@H](C)[C@@](O)(O2)C(=O)C(=O)N2CCCC[C@H]2C(=O)O[C@H]([C@H](C)C[C@@H]2CC[C@H](n3cnnn3)[C@H](OC)C2)CC(=O)[C@H](C)/C=C(\C)[C@@H](O)[C@@H](OC)C(=O)[C@H](C)C[C@H](C)/C=C/C=C/C=C/1C [zotarolimus]
Method in brief: as §1

idasanutlin = compound: COc1cc(C(=O)O)ccc1NC(=O)[C@@H]1N[C@@H](CC(C)(C)C)[C@](C#N)(c2ccc(Cl)cc2F)[C@H]1c1cccc(Cl)c1F [idasanutlin]
Method in brief: as §1

alisertib = compound: COc1cc(Nc2ncc3c(n2)-c2ccc(Cl)cc2C(c2c(F)cccc2OC)=NC3)ccc1C(=O)O [alisertib]
Method in brief: as §1

[2] = compound: COc1cc2nc(-c3cc(F)ccc3O)nc(N[C@@H]3CNC[C@H]3C(C)(C)O)c2cc1OC
Method in brief: as §1

gefitinib = compound: COc1cc2ncnc(Nc3ccc(F)c(Cl)c3)c2cc1OCCCN1CCOCC1 [gefitinib]
Method in brief: as §1

[3] = compound: COc1cccc2cc(-c3nc([C@H]4CC[C@H](C(=O)O)CC4)n4ncnc(N)c34)[nH]c12
Method in brief: as §1

lapatinib = compound: CS(=O)(=O)CCNCc1ccc(-c2ccc3ncnc(Nc4ccc(OCc5cccc(F)c5)c(Cl)c4)c3c2)o1 [lapatinib]
Method in brief: as §1

pictilisib = compound: CS(=O)(=O)N1CCN(Cc2cc3nc(-c4cccc5[nH]ncc45)nc(N4CCOCC4)c3s2)CC1 [pictilisib]
Method in brief: as §1

Target | log2 fold change [1] | log2 fold change (filanesib) | log2 fold change (zotarolimus) | log2 fold change (idasanutlin) | log2 fold change (alisertib) | log2 fold change [2] | log2 fold change (gefitinib) | log2 fold change [3] | log2 fold change (lapatinib) | log2 fold change (pictilisib)
PSMD12 (UniProt O00232) | inactive: -0.015 | inactive: 0.047 | inactive: 0.013 | inactive: -0.025 | inactive: -0.096 | inactive: -0.07 | inactive: -0.018 | inactive: -0.067 | inactive: 0.096 | inactive: -0.059
PTPMT1 (UniProt Q8WUK0) | inactive: -0.084 | inactive: -0.26 | inactive: -0.027 | inactive: -0.002 | inactive: 0.006 | active: -0.327 | inactive: -0.021 | inactive: 0.034 | inactive: -0.064 | inactive: 0.02
PSAT1 (UniProt Q9Y617) | inactive: 0.029 | inactive: -0.055 | inactive: -0.029 | inactive: 0.004 | inactive: -0.079 | inactive: -0.023 | inactive: -0.006 | inactive: 0.008 | inactive: -0.019 | inactive: -0.018
QPCTL (UniProt Q9NXS2) | inactive: -0.072 | inactive: 0.075 | inactive: 0.082 | inactive: -0.023 | inactive: -0.089 | inactive: -0.07 | inactive: -0.004 | inactive: 0.028 | inactive: 0.132 | inactive: -0.011
QPRT (UniProt Q15274) | inactive: 0.041 | inactive: -0.008 | inactive: 0.068 | inactive: -0.041 | inactive: -0.026 | inactive: -0.018 | inactive: 0.033 | inactive: 0.042 | inactive: -0.014 | inactive: 0.034
PSIP1 (UniProt O75475) | inactive: -0.051 | inactive: 0.151 | inactive: -0.002 | inactive: 0.13 | inactive: -0.084 | inactive: 0.013 | inactive: -0.032 | inactive: -0.051 | inactive: -0.008 | inactive: -0.033
PTPN11 isoform 1 (UniProt Q06124) | inactive: 0.005 | inactive: -0.017 | inactive: 0.039 | inactive: -0.009 | inactive: -0.072 | inactive: 0.039 | inactive: 0.014 | inactive: -0.001 | inactive: -0.019 | inactive: -0.01
PTDSS2 (UniProt Q9BVG9) | inactive: -0.075 | inactive: -0.062 | inactive: -0.011 | inactive: -0.034 | inactive: -0.049 | inactive: -0.009 | inactive: 0.065 | inactive: -0.016 | inactive: 0.009 | inactive: 0.038
PSMD13 (UniProt Q9UNM6) | inactive: -0.127 | inactive: 0.095 | inactive: 0.009 | inactive: -0.054 | inactive: -0.04 | inactive: -0.025 | inactive: -0.026 | inactive: -0.05 | inactive: 0.038 | inactive: -0.01
PSMC1 (UniProt P62191) | inactive: -0.062 | inactive: 0.03 | inactive: -0.013 | inactive: 0.009 | inactive: -0.049 | inactive: -0.018 | inactive: -0.05 | inactive: -0.015 | inactive: 0.054 | inactive: -0.006
PUS3 (UniProt Q9BZE2) | inactive: -0.052 | inactive: -0.121 | inactive: -0.015 | inactive: -0.087 | inactive: -0.015 | inactive: 0.015 | inactive: -0.071 | inactive: 0.061 | inactive: -0.024 | inactive: 0.038
PYM1 (UniProt Q9BRP8) | inactive: -0.038 | inactive: 0.111 | inactive: 0.008 | inactive: 0.01 | inactive: -0.043 | inactive: 0 | inactive: -0.054 | inactive: -0.028 | inactive: -0.017 | inactive: -0.044
PTPRN2 isoform 3 (UniProt Q92932) | inactive: -0.355 | inactive: 0.109 | inactive: -0.42 | inactive: 0.093 | inactive: 1.22 | – | inactive: 0.036 | inactive: 0.037 | – | –
PRUNE1 (UniProt Q86TP1) | inactive: -0.083 | inactive: -0.047 | inactive: 0.026 | inactive: 0.023 | inactive: 0.091 | inactive: 0.059 | inactive: 0.006 | inactive: -0.007 | inactive: -0.038 | inactive: 0.072
PSMF1 (UniProt Q92530) | inactive: 0.035 | inactive: -0.004 | inactive: -0.066 | inactive: -0.032 | inactive: -0.025 | inactive: 0.005 | inactive: 0.022 | inactive: 0.097 | inactive: 0 | inactive: 0.058
PTER (UniProt Q96BW5) | inactive: 0 | inactive: -0.067 | inactive: -0.011 | inactive: 0.005 | inactive: -0.014 | inactive: -0.017 | inactive: -0.005 | inactive: 0.015 | inactive: -0.002 | inactive: 0.023
QSOX1 (UniProt O00391) | inactive: 0.079 | inactive: 0.002 | inactive: -0.124 | inactive: 0.017 | inactive: 0.243 | – | inactive: 0.02 | inactive: -0.153 | – | inactive: 0.022
PTPN23 (UniProt Q9H3S7) | inactive: 0.12 | inactive: 0.038 | inactive: 0.059 | inactive: -0.038 | inactive: 0.002 | inactive: 0.044 | inactive: 0.041 | inactive: -0.008 | inactive: -0.012 | inactive: 0.037
PXK (UniProt Q7Z7A4) | inactive: 0.105 | inactive: -0.005 | inactive: 0.021 | inactive: -0.035 | inactive: -0.057 | inactive: 0.069 | inactive: -0.001 | inactive: 0.015 | inactive: 0.03 | inactive: 0.127
PRXL2A (UniProt Q9BRX8) | inactive: -0.17 | inactive: -0.021 | inactive: 0.008 | inactive: 0.186 | inactive: 0.482 | inactive: 0.221 | – | inactive: 0.039 | inactive: -0.033 | inactive: -0.182
PSMA1 isoform 2 (UniProt P25786) | inactive: -0.026 | inactive: 0.045 | inactive: -0.018 | inactive: 0.042 | inactive: -0.096 | inactive: -0.051 | inactive: -0.021 | inactive: -0.009 | inactive: 0.06 | inactive: -0.032
PUS1 (UniProt Q9Y606) | inactive: -0.085 | inactive: 0.019 | inactive: 0.066 | inactive: -0.099 | – | inactive: -0.03 | – | – | inactive: -0.014 | inactive: 0.072
PSMB1 (UniProt P20618) | inactive: 0.016 | inactive: 0.04 | inactive: -0.043 | inactive: 0.015 | inactive: -0.017 | inactive: 0.005 | inactive: -0.018 | inactive: -0.03 | inactive: 0.019 | inactive: -0.073
QSOX2 (UniProt Q6ZRP7) | inactive: -0.001 | inactive: -0.106 | inactive: -0.046 | inactive: 0.013 | inactive: 0.013 | inactive: -0.124 | inactive: -0.061 | inactive: 0.084 | inactive: 0.021 | inactive: 0.074
PSMB2, A0A087WVV1 | inactive: 0.001 | inactive: 0.009 | – | inactive: -0.199 | inactive: 0.128 | inactive: -0.129 | inactive: 0.086 | inactive: -0.029 | inactive: 0.031 | inactive: 0.063
PYGB (UniProt P11216) | inactive: -0.024 | inactive: 0.035 | inactive: -0.023 | inactive: -0.013 | inactive: -0.019 | active: 0.237 | inactive: -0.037 | inactive: 0.028 | inactive: -0.223 | inactive: -0.164
R3HCC1 (UniProt Q9Y3T6) | inactive: 0.008 | inactive: 0.059 | inactive: 0.153 | inactive: 0.074 | – | inactive: 0.084 | inactive: 0.177 | – | inactive: 0.151 | inactive: -0.129
R3HDM1 isoform 2 (UniProt Q15032) | inactive: 0.196 | inactive: 0.043 | – | inactive: -0.074 | inactive: 0.064 | inactive: 0.014 | inactive: 0.072 | inactive: 0.023 | inactive: 0.015 | inactive: 0.079
PTGR2 (UniProt Q8N8N7) | inactive: -0.13 | inactive: -0.155 | inactive: 0.195 | inactive: 0.122 | inactive: -0.03 | inactive: -0.04 | inactive: 0.035 | inactive: 0 | inactive: 0.125 | inactive: 0.313
PSMB9 (UniProt P28065) | inactive: 0.25 | inactive: 0.189 | inactive: -0.08 | inactive: -0.028 | – | inactive: 0.246 | – | – | inactive: -0.064 | inactive: -0.006

Single values from the entries so far.
log2 fold change (zotarolimus), R3HCC1 (UniProt Q9Y3T6) is entered as inactive: 0.153
log2 fold change (gefitinib), QPRT (UniProt Q15274) is entered as inactive: 0.033

Full records from above. Order of values: log2 fold change [1]	log2 fold change (filanesib)	log2 fold change (zotarolimus)	log2 fold change (idasanutlin)	log2 fold change (alisertib)	log2 fold change [2]	log2 fold change (gefitinib)	log2 fold change [3]	log2 fold change (lapatinib)	log2 fold change (pictilisib)
PSMB9 (UniProt P28065) in the list: inactive: 0.25	inactive: 0.189	inactive: -0.08	inactive: -0.028	–	inactive: 0.246	–	–	inactive: -0.064	inactive: -0.006
PSMB2, A0A087WVV1 in the list: inactive: 0.001	inactive: 0.009	–	inactive: -0.199	inactive: 0.128	inactive: -0.129	inactive: 0.086	inactive: -0.029	inactive: 0.031	inactive: 0.063
